In PMC8468827:
No constants are given. Whether binding was seen depends on the method and setting. Binding seen in cells or lysates may run through a third protein. These calls come from enrichment with a bait or labelling near it, and not all partners need be listed.

By UniProt entry, the sequences of proteins in these tests, tags left out.
UniProt Q9VQ93: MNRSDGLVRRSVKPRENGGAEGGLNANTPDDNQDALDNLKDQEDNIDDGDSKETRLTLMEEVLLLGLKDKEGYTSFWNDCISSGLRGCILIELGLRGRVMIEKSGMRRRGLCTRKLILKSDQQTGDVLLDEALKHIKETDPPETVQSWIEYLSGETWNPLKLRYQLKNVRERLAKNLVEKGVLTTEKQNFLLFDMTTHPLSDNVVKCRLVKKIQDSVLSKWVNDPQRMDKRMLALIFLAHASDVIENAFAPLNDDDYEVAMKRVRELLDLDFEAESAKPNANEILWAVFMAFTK

Target: dGOLPH3-mRFP (Drosophila) (UniProt Q9VQ93)
Experiment: affinity purification with mass spectrometry; RFP-trap beads on lysate of 3000 adult testes expressing dGOLPH3-RFP (RFP alone as control); lysis buffer 25 mM Tris-HCl pH 7.4, 150 mM NaCl, 1 mM EDTA, 1% NP-40; washes at 4 °C; nanoLC-MS/MS

Binder | binding
Brother of tout-velu (Botv) (protein, UniProt Q9XZ08 1-972) MPPAYDLGHSGEAYQPLDTGSGGGNEACAPNSSSAQIRHSMGFRTSWMRQFRRYKLPMVLLMLLFLVSCLAYRILSVEQDAPPLDLHRSSPLLDAYEDFSAMRAGDLKMRIEEMVRIKSTVSVELRELESRRQKLQSDISQYNQKIEELKQELLREQTELERLKISVEQAQVAQREAVQRNTPDLALPRSLLPNTLPRKSNPITGGMAASCEMHNCFNHSRCSLTSGFPVYLYDPDEHSVQRKGYDIDGFLKTTLKQTLGYNAHIVKDPKHACIYLVLVGEALLEQDLLRNNRYAAQEAEHQQPSTPTLENDCPVDMEKLYSLPYWGGDGRNHVLLNLARRDLTSHRTNPLYRQNTMRAIVVQSAFEREQFRPGYDLIVPPILGPPGGDVWQECAEMVPARRKYLLTYQGELRPKQSSLNPLDAFILEHLADMAKGATQDQFVLQFQCVPATEQQEGDSLPDWTLCGSDSSRRQLLKDSTFSLILPPLNGRVSSTLMLARIYEALRSGAVPVILGADELRLPYAETVDWRRTALLLPKARITELHFLLRAVQDADLLLLRRQGRLIWERYLSSVQATVDTVIASLRDRLGIPPRPVPSVIAQSVFNSTFIPLKSDPPVGLDTEPEESLGPIEPPYPSPAFRRNYTILRMQAKEAWNDWLDPFYLYPQLPFDPALPSEAKFMGSHTGFRPIGKGLGGAGKEFGESLGGNYPREQFTIVMLTYEREQVLMDSLGRLYGLPYLHKVVVVWNSPKPPLDDLRWPDIGVPVAVLRAPRNSLNNRFLPFDVIETEAVLSVDDDAHLRHDEILFGFRVWREHRDRVVGFPGRYHAWDLGNPNGQWHYNSNYSCELSMVLTGAAFVHKYYLYLYTYHLPQAIRDKVDEYMNCEDIAMNFLVSHITRKPPVKVTSRWTFRCPGCPVSLSEDDTHFQERHKCINFFSRVFGYTPLLNTQYRADSILFKTRIPHDKQKCFKYI | binds
β’COP (protein, UniProt O62621 1-914) MPLKLDIKRRLTSRSDRVKCVDLHPAEPWMLCALYNGHVHIMNYENQQMVKDFEVCDVPVRSARFVARKNWILTGSDDMQIRVFNYNTLEKVHSFEAHSDYLRCIAVHPTQPLVLTSSDDMLIKLWNWEKMWACQRVFEGHTHYVMQIVFNPKDNNTFASASLDRTVKVWQLGSNFANFTLEGHEKGVNCVDYYHGGDKPYLISGADDRLVKIWDYQNKTCVQTLEGHAQNISAVCFHPELPIVLTGSEDGTVRIWHSGTYRLETCLNYGFERVWTISSMRGTNNVALGYDEGSIIIKVGREEPAMSMDVVGSKIIWAKHSEMQQVNLKTIADGTEIKDGERLPVATKDMGACEIYPQTIAHNPNGRFVVVCGDGEYIIYTSMALRNKAFGSAQEFVWALESNEYAIRENNGTVRLFRNFKERKSFTPEYGAESIYGGYYFGVKTSSGLAFYDWETLQLVRRIEVQPKNVFWNESGSLVCLATDDSYFVLGVDTAQVANAVETKEGLEDDGVESAFNVLGEVSECVKTGLWVGDCFIYTNSVNRINYYVGGEIVTVSHLDRTMYLLGYVPKDNRIYLGDKELNVISFCLQLSVLEYQTAVMRRDFERADVVLPTIPKEHRTRVAHFLEKQGFKSQALQVSTDADHKFDLALQIGDLEIALKLARESENSQKWSQLADVASSKNNMSLVKECMQKANDLSGLLLLSTASGDAQLLEVVGAAGSAQGHHNLAFLSAFLRSDVERCLEILIETNRLPEAAFFARTYLPSQMSRIVELWREKLGKVNEKAGQSLADPAQYTNLFPGLGDALRVEQHLQEERARKAPARLAANLPLNSERHPLQELFAAEQGAAGQHLEEKVKPAYVPAQAVVSSSQVAEPTSAADDDDDLDLEIDGITLDDNIDTTDVNLDDDFLSDD | binds
Pgant5 (protein, UniProt Q6WV17 1-630) MTFSTFTRKMRGRMRSNTCRIVLLTSLVWVIFDFVLIARYSDCIGKDGWRCKRSGEYDVELPNAERLVDDNQLVDDNEINTEKSLDGESGGALIMGQGFASGGISMTYPSVVLKKWFLAPSVQEAKGKPGEMGKPVKIPADMKDLMKEKFKENQFNLLASDMISLNRSLTDVRHEGCRRKHYASKLPTTSIVIVFHNEAWTTLLRTVWSVINRSPRALLKEIILVDDASERDFLGKQLEEYVAKLPVKTFVLRTEKRSGLIRARLLGAEHVSGEVITFLDAHCECTEGWLEPLLARIVQNRRTVVCPIIDVISDETFEYITASDSTWGGFNWKLNFRWYRVPSREMARRNNDRTAPLRTPTMAGGLFSIDKDYFYEIGSYDEGMDIWGGENLEMSFRIWQCGGILEIIPCSHVGHVFRDKSPYTFPGGVAKIVLHNAARVAEVWLDEWRDFYYSMSTGARKASAGDVSDRKALRDRLKCKSFRWYLENVYPESLMPLDYYYLGEIRNAETETCLDTMGRKYNEKVGISYCHGLGGNQVFAYTKRQQIMSDDLCLDASSSNGPVNMVRCHNMGGNQEWVYDAEEKWIRHTNTGQCLQRATRDDANTPLLRPCSYGKGQQWLMESKFKWQAH | binds

Now from value to binder:

binding | Binder
binds | Shibire (protein, UniProt P27619 1-877) MDSLITIVNKLQDAFTSLGVHMQLDLPQIAVVGGQSAGKSSVLENFVGKDFLPRGSGIVTRRPLILQLINGVTEYGEFLHIKGKKFSSFDEIRKEIEDETDRVTGSNKGISNIPINLRVYSPHVLNLTLIDLPGLTKVAIGDQPVDIEQQIKQMIFQFIRKETCLILAVTPANTDLANSDALKLAKEVDPQGVRTIGVITKLDLMDEGTDARDILENKLLPLRRGYIGVVNRSQKDIEGRKDIHQALAAERKFFLSHPSYRHMADRLGTPYLQRVLNQQLTNHIRDTLPGLRDKLQKQMLTLEKEVEEFKHFQPGDASIKTKAMLQMIQQLQSDFERTIEGSGSALVNTNELSGGAKINRIFHERLRFEIVKMACDEKELRREISFAIRNIHGIRVGLFTPDMAFEAIVKRQIALLKEPVIKCVDLVVQELSVVVRMCTAKMSRYPRLREETERIITTHVRQREHSCKEQILLLIDFELAYMNTNHEDFIGFANAQNKSENANKTGTRQLGNQVIRKGHMVIQNLGIMKGGSRPYWFVLTSESISWYKDEDEKEKKFMLPLDGLKLRDIEQGFMSMSRRVTFALFSPDGRNVYKDYKQLELSCETVEDVESWKASFLRAGVYPEKQETQENGDESASEESSSDPQLERQVETIRNLVDSYMKIVTKTTRDMVPKAIMMLIINNAKDFINGELLAHLYASGDQAQMMEESAESATRREEMLRMYRACKDALQIIGDVSMATVSSPLPPPVKNDWLPSGLDNPRLSPPSPGGVRGKPGPPAQSSLGGRNPPLPPSTGRPAPAIPNRPGGGAPPLPGGRPGGSLPPPMLPSRVSGAVGGAIVQQSGANRYVPESMRGQVNQAVGQAAINELSNAFSSRFK
binds | Alg11 (protein, UniProt Q9VP06 1-475) MFLFLFLLWLLLSLVLVAVLSFLFLRQWLLGRKNKLHTSSENGINVGIFHPYCNAGGGGERVLWCAVRALQEKYQNARMVIYTGDIDASPNSILQKAKNVFNIAVDSDNVKFVFLKQRHWIEAKNYPHFTLLGQSIGSMVVGLEALCRFPPDIYIDTMGYAFTYPLFRYLAQSKVGCYVHYPVISTDMLKRVQQRQMSHNNKKYVARNPFLTWTKLAYYRLFSRMYKWVGCCAETIMVNSSWTENHILQLWDVPFKTHRVYPPCEVSHLKSLQHTEKGDEFIILSVGQFRPEKDHPLQLQAIYELRTLLAQDEALWNQIKLVIVGSCRNEDDYERLKNMQDLTKHLSLENNVQFSVNVPYEDLLKLYQTAHIGIHTMWNEHFGIGIVESMAAGLIMVAHKSGGPLLDIVETSAGSQNGFLATDAVEYAENILNIIVNNSEMNGIRNAARASVERFSEQEFEKNFLRAVSTLFTNN
binds | SH3PX1 (protein, UniProt Q9NCC3 1-565) MTSYVRAMYDFTGEPGSSELSIATGDVLSVTRSDVGEGWWEGKNARGQIGLFPAAYVEVMSAAEAQKLSASGATSVPQVPDPFASPPLPRYDQTADDDGSNWDDEDDWSDDNDTYSEIGPGGQKSAGQSARAGGLSHSTSDYDNKHLPIAPNDDTQSLASVAGGTGAAGTVKKGMFAKSSDSYILGLSSTKEKIPECEMAYITQVEDSIYQWTQNHSPYSVVVASPKKESKFKGMKTFIAYQLTPSFNNISVSRRYKHFDWLHERLVDKFCLIPVPPLPDKQISGRYEEQFVEHRRVQLQEFVDWVCRHPVISKCEVWYHFLTCRDEKIWKSGKRKAERDPYMGVNYCLAISPPDKNLLHSKVDAQVELGTQFIHSMDVAVRNLNNISNDMAKRSMSQSKKEFQRIGDGLSDLAKALAIDERRAPTRNAVPLSESVGRIGGIFIGIGQAFGDQPKHDWIPLSDRLHIYRGVLNCFPDIFSTHKGAIQKRKDCEKLAGEGRMNNPQLHDVNRRTDVVSYTVLAELTHFKSERDTHLKHTLKNFIAEQIKFYQGVVARLQEASRQIE
